Test results published in patent US20240156870A1 (NATIONAL RESEARCH COUNCIL OF CANADA, published 2024).
Results are given in words; binding and its absence hold for the method and conditions named. Some entries that bind do so weakly or less than the wild type.

Key:
[1] = biological target: T1, human EGFR, native, on the cell surface (human, UniProt P00533 25-1210); assay: cytometry on EGFR-positive tumor cells
T1 construct: MCF7 is EGFR-low and serves as low-expression control; also called native cell-surface EGFR

[2] = biological target: T2, human EGFR-Fc fusion protein (human, UniProt P00533 25-645); assay: sandwich ELISA: streptavidin-captured biotinylated VHH, human EGFR-Fc 500 ng/ml in solution, anti-human IgG-HRP [panel C]
T2 construct: Bought; not shown: Fc part of the bought fusion

[3] = biological target: T1, human EGFR, native, on the cell surface; assay: flow cytometry on EGFR-positive MDA-MB-468 cells, VHH monomer 20 µg/ml, anti-c-Myc and labelled anti-mouse antibodies
[4] = biological target: rhesus EGFR-Fc fusion protein (rhesus) (UniProt P55245); assay: SPR and ELISA on EGFR-Fc of three species
[5] = biological target: T2, human EGFR-Fc fusion protein; assay: SPR and ELISA on EGFR-Fc of three species
[6] = biological target: T3, mouse EGFR-Fc fusion protein (mouse, UniProt Q01279 25-647); assay: SPR and ELISA on EGFR-Fc of three species
T3 construct: Bought; not shown: Fc part of the bought fusion

[7] = biological target: rhesus EGFR-Fc fusion protein (rhesus) (UniProt P55245); assay: ELISA, VHH titrated from about 0.5 to 1000 ng/mL, OD 450 nm
[8] = biological target: T2, human EGFR-Fc fusion protein; assay: as above
[9] = biological target: T3, mouse EGFR-Fc fusion protein; assay: as above
[10] = biological target: T2, human EGFR-Fc fusion protein; assay: SPR, single-cycle kinetics (Biacore T200): VHH monomer, rising concentrations within 0.6-50 nM, over amine-coupled human EGFR-Fc [panel A]

Measured: binding

B1: NRC-sdAb033 (VHH)
VHH: QVQLVESGGGLVQPGGSLRLSCAASESIDSIYVMQWYRQAPEKPRDVVATLTPGGGSYYPEAVLGRFTISRDDAKNTVYLQMNSLKPEDTAVYYCNAFHRLRGTHYWGQGTQVTVSS
notes: Monomeric llama VHH; in ELISA a version with biotin acceptor peptide and 6xHis was used; also called EVE48; not shown: C-terminal c-Myc and 6xHis tags
binds: all assays above
